# Laboratory results from patent US20150024020A1, “DRUG DELIVERY SYSTEM AND METHOD OF MANUFACTURING THEREOF” (priority 2011, published 2015).
# Where “and” joins values, the source holds several entries; their conditions need not be identical. Equal values may be shown once. At least one structure is not confirmed: it was looked up by name or label, or the drawing left a doubt.
# Assays:
# [1] = Elution of Rapamycin deposits on silicon coupons into human plasma (weight loss); format: physicochemical
# [2] = Drug weight loss during Neutral Beam irradiation of Rapamycin deposits on silicon coupons; format: physicochemical; settings: each Neutral Beam irradiated coupon; by weight
# [3] = Control, no irradiation, human plasma bath 4.5 hours, silicon coupons 1-4 and Mean
structure (smiles),measurement,setting,value
CO[C@H]1C[C@@H]2CC[C@@H](C)[C@@](O)(O2)C(=O)C(=O)N2CCCC[C@H]2C(=O)O[C@H]([C@H](C)C[C@@H]2CC[C@@H](O)[C@H](OC)C2)CC(=O)[C@H](C)/C=C(\C)[C@@H](O)[C@@H](OC)C(=O)[C@H](C)C[C@H](C)/C=C/C=C/C=C/1C [Rapamycin],Elution Loss,[1]; [3],60 µg and 55 µg and 61 µg and 72 µg and 62 µg
same,Elution Loss %,[1]; [3],72% and 63% and 69% and 75% and 70%
same,Elution Loss %,"[1]; Group 1, Neutral Beam, dose equivalent 5 × 10^14 gas cluster ions per cm^2, VAcc 30 kV, human plasma 4.5 hours, coupons and Mean",5% and 7% and 2%
same,Elution Loss %,"[1]; Group 3, Neutral Beam, dose equivalent 5 × 10^14 gas cluster ions per cm^2, VAcc 25 kV, human plasma 4.5 hours, coupons and Mean",0% and 6% and 1% and 4% and 3%
same,drug loss during irradiation,[2],negligible
